# Results published in PubChem BioAssay (NCATS).
# By UniProt entry, the sequences of proteins in these tests, tags left out. Where a name states a change or a piece, a line headed by the entry shows the natural chain unless it says otherwise.
# UniProt P10635, whole entry, looked up: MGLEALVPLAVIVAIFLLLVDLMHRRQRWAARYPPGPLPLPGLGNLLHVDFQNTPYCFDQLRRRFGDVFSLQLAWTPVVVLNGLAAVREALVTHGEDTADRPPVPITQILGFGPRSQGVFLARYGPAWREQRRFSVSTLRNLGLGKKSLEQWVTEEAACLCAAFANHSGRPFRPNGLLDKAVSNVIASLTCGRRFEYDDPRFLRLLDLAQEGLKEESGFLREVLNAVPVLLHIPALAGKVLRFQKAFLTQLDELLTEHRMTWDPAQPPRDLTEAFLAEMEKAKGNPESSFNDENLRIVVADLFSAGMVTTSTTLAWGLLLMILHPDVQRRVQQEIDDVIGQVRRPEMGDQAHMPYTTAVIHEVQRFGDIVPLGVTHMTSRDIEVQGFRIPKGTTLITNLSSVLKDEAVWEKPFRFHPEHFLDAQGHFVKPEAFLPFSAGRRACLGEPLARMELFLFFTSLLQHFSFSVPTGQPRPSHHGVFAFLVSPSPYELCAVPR
# UniProt Q12809: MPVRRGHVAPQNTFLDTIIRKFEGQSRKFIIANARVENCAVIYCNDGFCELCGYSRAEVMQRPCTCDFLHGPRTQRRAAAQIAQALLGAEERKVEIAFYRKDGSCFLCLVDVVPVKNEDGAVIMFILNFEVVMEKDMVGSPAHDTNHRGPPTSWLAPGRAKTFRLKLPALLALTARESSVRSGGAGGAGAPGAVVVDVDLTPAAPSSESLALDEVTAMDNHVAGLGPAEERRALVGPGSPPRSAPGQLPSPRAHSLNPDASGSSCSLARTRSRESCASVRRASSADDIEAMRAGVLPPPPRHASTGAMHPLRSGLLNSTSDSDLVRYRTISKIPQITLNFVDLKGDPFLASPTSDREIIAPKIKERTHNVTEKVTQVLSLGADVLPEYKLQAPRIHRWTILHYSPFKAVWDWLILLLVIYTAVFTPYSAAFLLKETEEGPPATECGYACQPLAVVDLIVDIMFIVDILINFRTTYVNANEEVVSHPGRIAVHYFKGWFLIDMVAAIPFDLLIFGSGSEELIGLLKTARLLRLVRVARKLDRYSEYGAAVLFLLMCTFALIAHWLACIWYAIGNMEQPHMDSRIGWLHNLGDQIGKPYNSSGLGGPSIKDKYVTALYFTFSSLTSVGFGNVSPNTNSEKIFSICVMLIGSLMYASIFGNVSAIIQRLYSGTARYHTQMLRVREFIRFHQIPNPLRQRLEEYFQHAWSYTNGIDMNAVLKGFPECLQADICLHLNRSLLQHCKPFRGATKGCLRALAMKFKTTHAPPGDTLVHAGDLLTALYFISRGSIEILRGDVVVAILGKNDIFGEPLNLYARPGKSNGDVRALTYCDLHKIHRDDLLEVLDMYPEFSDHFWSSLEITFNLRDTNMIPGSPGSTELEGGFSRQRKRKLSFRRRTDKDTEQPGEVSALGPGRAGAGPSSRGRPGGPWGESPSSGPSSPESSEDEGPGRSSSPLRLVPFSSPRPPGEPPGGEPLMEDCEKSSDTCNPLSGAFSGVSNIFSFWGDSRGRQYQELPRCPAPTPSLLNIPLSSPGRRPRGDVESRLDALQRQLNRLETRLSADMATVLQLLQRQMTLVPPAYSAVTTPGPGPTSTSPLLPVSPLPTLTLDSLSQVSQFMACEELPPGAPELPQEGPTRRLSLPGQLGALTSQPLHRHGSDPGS
# UniProt P11712, whole entry, looked up: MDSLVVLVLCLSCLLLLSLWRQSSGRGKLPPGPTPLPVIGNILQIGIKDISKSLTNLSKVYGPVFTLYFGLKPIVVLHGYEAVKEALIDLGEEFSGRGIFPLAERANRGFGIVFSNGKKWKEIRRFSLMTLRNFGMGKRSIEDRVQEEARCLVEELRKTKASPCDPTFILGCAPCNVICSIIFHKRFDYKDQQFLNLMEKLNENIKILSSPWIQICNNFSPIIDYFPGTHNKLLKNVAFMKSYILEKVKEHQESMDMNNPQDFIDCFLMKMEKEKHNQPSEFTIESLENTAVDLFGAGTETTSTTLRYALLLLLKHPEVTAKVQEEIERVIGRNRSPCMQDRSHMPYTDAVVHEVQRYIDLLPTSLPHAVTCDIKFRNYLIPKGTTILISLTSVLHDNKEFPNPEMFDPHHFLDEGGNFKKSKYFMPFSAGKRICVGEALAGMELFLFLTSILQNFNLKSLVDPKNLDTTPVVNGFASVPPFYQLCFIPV
# UniProt P33261, whole entry, looked up: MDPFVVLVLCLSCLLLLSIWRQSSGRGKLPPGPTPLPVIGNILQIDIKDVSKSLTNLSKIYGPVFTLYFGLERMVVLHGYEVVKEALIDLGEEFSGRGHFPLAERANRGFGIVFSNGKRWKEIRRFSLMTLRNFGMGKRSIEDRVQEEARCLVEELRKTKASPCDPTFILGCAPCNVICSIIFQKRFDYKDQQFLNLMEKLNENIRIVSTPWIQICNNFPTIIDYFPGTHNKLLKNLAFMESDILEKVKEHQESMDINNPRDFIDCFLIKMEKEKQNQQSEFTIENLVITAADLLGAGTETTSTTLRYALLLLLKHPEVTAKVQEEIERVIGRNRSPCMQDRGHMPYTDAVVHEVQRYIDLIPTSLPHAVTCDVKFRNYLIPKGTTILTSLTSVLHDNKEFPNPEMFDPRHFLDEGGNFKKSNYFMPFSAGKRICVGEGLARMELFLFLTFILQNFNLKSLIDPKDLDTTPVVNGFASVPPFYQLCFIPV
# UniProt P08684, whole entry, looked up: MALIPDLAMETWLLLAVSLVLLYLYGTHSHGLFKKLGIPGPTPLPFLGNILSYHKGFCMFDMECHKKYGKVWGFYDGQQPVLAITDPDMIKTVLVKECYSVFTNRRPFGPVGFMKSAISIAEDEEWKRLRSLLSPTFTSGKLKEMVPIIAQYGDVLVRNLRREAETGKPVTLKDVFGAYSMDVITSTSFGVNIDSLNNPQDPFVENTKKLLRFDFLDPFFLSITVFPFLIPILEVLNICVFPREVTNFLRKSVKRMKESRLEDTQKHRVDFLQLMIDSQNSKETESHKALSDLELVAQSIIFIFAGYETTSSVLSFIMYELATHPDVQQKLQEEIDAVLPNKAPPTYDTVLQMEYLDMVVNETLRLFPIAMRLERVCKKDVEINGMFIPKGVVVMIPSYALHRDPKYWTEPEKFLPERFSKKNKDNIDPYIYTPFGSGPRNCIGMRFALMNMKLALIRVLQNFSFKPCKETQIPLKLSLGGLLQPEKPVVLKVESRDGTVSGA
# UniProt P05177, whole entry, looked up: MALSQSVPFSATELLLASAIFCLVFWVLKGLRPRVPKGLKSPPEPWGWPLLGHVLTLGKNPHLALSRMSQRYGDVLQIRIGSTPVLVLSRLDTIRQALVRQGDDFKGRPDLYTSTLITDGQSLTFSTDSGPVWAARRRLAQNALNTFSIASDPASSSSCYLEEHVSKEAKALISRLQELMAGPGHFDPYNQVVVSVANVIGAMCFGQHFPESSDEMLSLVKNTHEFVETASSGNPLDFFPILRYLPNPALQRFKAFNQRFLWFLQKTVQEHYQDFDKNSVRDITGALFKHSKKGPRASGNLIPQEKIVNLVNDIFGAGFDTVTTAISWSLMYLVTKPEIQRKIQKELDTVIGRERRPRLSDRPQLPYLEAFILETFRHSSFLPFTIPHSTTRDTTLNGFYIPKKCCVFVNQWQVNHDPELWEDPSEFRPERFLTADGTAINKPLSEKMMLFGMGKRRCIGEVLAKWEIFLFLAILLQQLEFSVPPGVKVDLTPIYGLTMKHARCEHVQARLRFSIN
# For part of these data: Most of the hits are listed elsewhere, so they are rarer here than in the full data. Where a call stands in place of a potency, no number is given. Inconclusive results are not listed. Only a part is listed here, and it is no random draw. Calls of active or inactive are those of the source. Unless noted, the call rests on the fitted dose curve; in most records, active means well fitted curve in the direction sought with a large enough effect; inconclusive means small, poorly fitted or top-dose-only effect, or another doubt; inactive means no such curve, though single readings can be large; an effect the other way counts as inactive or inconclusive.
# Experiments:
# [1] = target: Cytochrome P450 2D6 (Homo sapiens) (UniProt P10635); assay: Cytochrome P450 family 2 subfamily D member 6 (CYP2D6) small molecule antagonists: luciferase biochemical (cell-free) qHTS assay (AID 1645840; active means well fitted curve in the direction sought with a large enough effect in the repeat runs; an effect the other way counts as inactive or inconclusive; further: nearly all actives have a fitted effect of over 55% in size; further: potency means the concentration at half of the fitted maximal effect); conditions: P450-Glo CYP2D6 enzyme, luciferin luminescence, 1 h; series mostly up to 57.4 µM
# Procedure, shortened: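 P450-Glo luminescent screen: recombinant CYP2D6 enzyme–proluciferin substrate mix preincubated with compound 10 min at room temperature, then NADPH regeneration added for 1 h at room temperature. Detection reagent added for 20 min; luciferin light read as relative luminescence units.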
# [2] = target: Voltage-gated inwardly rectifying potassium channel KCNH2 (Homo sapiens) (UniProt Q12809); assay: qHTS Assay for Small Molecule Inhibitors of the Human hERG Channel Activity (AID 588834); conditions: U2OS BacMam hERG, FluxOR thallium flux fluorescence; series mostly up to 46.1 µM;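 further: lower thallium flux fluorescence means stronger hERG block; nearly all actives have a fitted effect of over 50% in size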; further: potency means the concentration at half of the fitted maximal effect; on activity change, negative = inhibition: top concentration of the series differs between compounds
# Procedure, shortened: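 Blockade is seen as reduced FluxOR thallium-flux fluorescence in U2OS cells expressing hERG from a BacMam construct, in Opti-MEM with 2% FCS. Concentration-response data fitted to the Hill equation for AC50.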
# [3] = target: Cytochrome P450 2C9 (Homo sapiens) (UniProt P11712); assay: qHTS Assay for Inhibitors and Substrates of Cytochrome P450 2C9 (AID 883); conditions: recombinant CYP2C9, luciferin-H luminescence, 60 min; series mostly up to 57.1 µM; further: nearly all actives have a fitted effect of over 60% in size; further: potency means the concentration at half of the fitted maximal effect
# Procedure, shortened: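 Signal: luciferase luminescence reporting luciferin produced by CYP2C9. Conditions: 10nM enzyme, Luciferin-H 100uM at KM, 25mM KPO4, 37C, 60 min NADPH-driven reaction. Reference: 57uM sulphaphenazole as 100% inhibition.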
# [4] = target: Cytochrome P450 2D6 (Homo sapiens) (UniProt P10635); assay: qHTS Assay for Inhibitors and Substrates of Cytochrome P450 2D6 (AID 891); conditions: recombinant CYP2D6, luciferin-ME EGE luminescence; at 57.1 µM (top of the series);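 further: luciferin methyl ether substrate demethylated by CYP2D6 with NADPH regeneration; nearly all actives have a fitted effect of over 60% in size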
# Procedure, shortened: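 Human CYP2D6 (5 nM) with 30 uM Luciferin-ME EGE (at Km) in 100 mM KPO4, compound preincubated 10 min, then NADPH regeneration system for 60 min at room temperature. Luciferin read by luminescence; normalized to 1.43 uM quinidine.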
# [5] = target: Cytochrome P450 2C19 (Homo sapiens) (UniProt P33261); assay: qHTS Assay for Inhibitors and Substrates of Cytochrome P450 2C19 (AID 899); conditions: recombinant CYP2C19, luciferin-H EGE luminescence; series mostly up to 57.1 µM; further: nearly all actives have a fitted effect of over 60% in size; further: potency means the concentration at half of the fitted maximal effect
# Procedure, shortened: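 Signal comes from luciferase acting on luciferin released by CYP2C19-mediated hydroxylation of Luciferin-H EGE, 10uM (KM). Assay mix: 5nM enzyme, 50mM KPO4; 60 min at 37C with NADPH regeneration. Data normalized against 57uM ketoconazole.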
# [6] = target: Cytochrome P450 3A4 (Homo sapiens) (UniProt P08684); assay: Cytochrome P450 family 3 subfamily A member 4 (CYP3A4) small molecule antagonists: luciferase qHTS assay (AID 1645841; active means well fitted curve in the direction sought with a large enough effect in the repeat runs; an effect the other way counts as inactive or inconclusive; further: nearly all actives have a fitted effect of over 45% in size); conditions: P450-Glo CYP3A4 enzyme assay, luciferin luminescence; at 57.4 µM (top of the series) unless noted
# Procedure, shortened: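 P450-Glo CYP3A4 enzyme with proluciferin substrate preincubated 10 min with compound at room temperature, then NADPH regeneration 1 h. Luciferin detection reagent added for 20 min; luminescence recorded. Ketoconazole positive control.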
# [7] = target: Cytochrome P450 1A2 (Homo sapiens) (UniProt P05177); assay: p450-cyp1a2 (AID 410; calls by dose curve; further: potency means the concentration at half of the fitted maximal effect); conditions: recombinant CYP1A2, luciferin-ME demethylation, luminescence; series mostly up to 25.6 µM
# Procedure, shortened: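 20nM CYP1A2 with 100uM Luciferin-ME (at Km) in 100mM KPO4; compound preincubated 10 min, NADPH regeneration added, 60 min at room temperature. Luciferin quantified by luminescence after detection reagent; normalized to 57 uM furafylline.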
# [8] = target: Cytochrome P450 3A4 (Homo sapiens) (UniProt P08684); assay: qHTS Assay for Inhibitors and Substrates of Cytochrome P450 3A4 (AID 884); conditions: recombinant CYP3A4, Luciferin-PPXE luminescence; series mostly up to 57.1 µM; further: nearly all actives have a fitted effect of over 50% in size; further: potency means the concentration at half of the fitted maximal effect
# Procedure, shortened: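 20 nM human CYP3A4 with 25 uM Luciferin-PPXE (at KM) in 200 mM KPO4, preincubated 10 min with compound; NADPH regeneration started a 60 min RT reaction. Luciferin detected by luminescence, normalized to 57 uM ketoconazole as full inhibition.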
# [9] = target: Cytochrome P450 3A4 (Homo sapiens) (UniProt P08684); assay: qHTS Assay for Activators of Cytochrome P450 3A4 (AID 885); conditions: recombinant CYP3A4, Luciferin-PPXE luminescence, 60 min; at 57.1 µM (top of the series) unless noted; further: nearly all actives have a fitted effect of over 65% in size
# Procedure, shortened: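 20nM CYP3A4 + 25uM Luciferin-PPXE (=KM), 200mM KPO4; cpd 10 min RT; NADPH regen, 60 min RT; stop w/ detection buffer, 20 min; luminescence. Normalized to 57 uM ketoconazole.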
smiles,measurement,setting,value
NC(=O)c1cnc(-c2ccc(C3(N)CCC3)cc2)c(-c2ccccc2)c1,Potency,[1],active: 2.13 µM
CCC[C@@H]1C[C@@H](C(=O)N[C@@H]([C@H]2O[C@H](SC)[C@H](O)[C@@H](O)[C@H]2O)[C@H](C)Cl)N(C)C1,Potency,[2],inactive
NC(N)=NCCN1CCCCCCC1,Potency,[2],inactive
COCC(=O)Nc1cc(Sc2ccccc2)ccc1N=C(NC(=O)OC)NC(=O)OC,Potency,[2],active: 2.24 µM
Nc1nc2ccc(OC(F)(F)F)cc2s1,Potency,[3],inactive
same,"activity change, negative = inhibition",[4],inactive: -4.18%
same,Potency,[5],inactive
same,Potency,[2],inactive
same,Potency,[1],inactive
same,"activity change, negative = inhibition",[6],inactive: -26.7%
CCCCC(=O)OCC(=O)[C@H]1[C@H](C)C[C@H]2[C@@H]3C[C@H](F)C4=CC(=O)C=C[C@]4(C)[C@@]3(F)[C@@H](O)C[C@@]21C,Potency,[1],active: 11 µM
CCC[C@H]1C[C@H](C(=O)N[C@@H]([C@H]2O[C@@H](SC)[C@@H](O)[C@@H](O)[C@@H]2O)[C@H](C)Cl)N(C)C1,Potency,[7],inactive
CC[C@](C)(CN(C)C)OC(=O)c1ccccc1,Potency,[7],active: 10 µM
Nc1ccc(C(=O)Nc2cccc(-c3nc(N4CCOCC4)c4oc5ncccc5c4n3)c2)cn1,Potency,[1],inactive
C[C@@H](O)[C@H]1C(=O)N2C(C(=O)OCOC(=O)C(C)(C)C)=C(SC3CN(C4=NCCS4)C3)[C@H](C)[C@H]12,Potency,[1],inactive
CCn1cc(C(=O)O)c(=O)c2cc(F)c(N3CCN(C)CC3)cc21,Potency,[8],inactive
same,Potency,[2],inactive
same,Potency,[1],inactive
same,"activity change, negative = inhibition",[6],inactive: 85.8% [at 23.9 µM]
O=C1OCCN1/N=C/c1ccc([N+](=O)[O-])o1,Potency,[2],inactive
O=C(c1ccc(F)cc1)N1CCCC(c2nc(-c3ccc(F)cc3)no2)C1 (stereo not drawn),Potency,[1],inactive
COC(=O)C1=C(C)NC(C)=C(C(=O)OC)C1c1ccccc1[N+](=O)[O-],Potency,[2],inactive
N#Cc1ccc(-c2ccc(S(=O)(=O)Nc3cccc(N)n3)cc2)cc1,Potency,[1],inactive
NC(=O)NNc1ccccc1,Potency,[2],inactive
same,Potency,[1],inactive
same,"activity change, negative = inhibition",[6],inactive: -4.22%
COc1cc2c(cc1OC)C(=O)C(CC1CCN(Cc3ccccc3)CC1)C2 (stereo not drawn),"activity change, negative = inhibition",[6],inactive: 311%
O=S(=O)(c1ccccc1)N1CCN(S(=O)(=O)c2ccccc2)c2ccccc21,"activity change, negative = inhibition",[7],inactive: -19.9% [at 2.29 µM]
same,Potency,[3],active: 251 nM
same,Potency,[8],active: 3.98 µM
same,"activity change, positive = activation",[9],inactive: -72.3% [at 11.4 µM]
same,Potency,[5],active: 126 nM
C[C@@H]1C[C@H]2[C@@H]3C[C@H](F)C4=CC(=O)C=C[C@@]4(C)[C@]3(F)[C@H](O)C[C@]2(C)[C@@]1(O)C(=O)CO,Potency,[7],inactive
CCC(C)(CN(C)C)OC(=O)c1ccccc1 (stereo not drawn),Potency,[2],inactive
same,"activity change, negative = inhibition",[6],inactive: -1.55%
C[C@@H]1C[C@H]2[C@@H]3C[C@H](F)C4=CC(=O)C=C[C@]4(C)[C@@]3(F)[C@@H](O)C[C@]2(C)[C@@]1(O)C(=O)CO,Potency,[2],inactive
same,Potency,[1],inactive
same,"activity change, negative = inhibition",[6],inactive: -8.17%
CC(C)n1c(=O)c(C(=O)NC2CC3CCC(C2)N3C[C@@H](O)CN(C)S(C)(=O)=O)cc2ccccc21 (stereo partly drawn),Potency,[1],inactive
same,"activity change, negative = inhibition",[6],inactive: -13.7%
CC(C)(CO)[C@@H](O)C(=O)NCCC(=O)NCCSSCCNC(=O)CCNC(=O)[C@H](O)C(C)(C)CO,Potency,[2],inactive
same,Potency,[1],inactive
same,"activity change, negative = inhibition",[6],inactive: -6.29%
COC(=O)c1ccc(C23CC4(C2)[C@H](CN(Cc2cccnc2)[C@@H]4c2ccccc2)C3c2ccc(Cl)nc2)cc1 (stereo partly drawn),Potency,[8],active: 3.98 µM
same,"activity change, positive = activation",[9],inactive: -100%
Cc1cc(/C=C/c2ccc3cc(N(C)C)ccc3[n+]2C)c(C)n1-c1ccccc1,Potency,[2],active: 6.31 µM
same,Potency,[1],active: 8.49 µM
same,"activity change, negative = inhibition",[6],inactive: 13.5%
